# The campaign covered roughly 580,000 compounds. About 6,100 (1.1%) were called active. The inconclusive results got no clear call from the source; some entries with a clear call stand among them for comparison. Calls follow the shape of the dose curve; as a rule, active = well fitted inhibition curve with a large enough effect; inconclusive = small, poorly fitted or top-dose-only effect, or another doubt; inactive = no such curve, though single readings can be large or run the other way. Potencies beside an inconclusive call are fits to weak or partial responses and may not hold up.
# Amino acid sequences for entries named in this document (tags omitted). A change or cut given only in a name is not applied to a line headed by its entry.
# UniProt P18054: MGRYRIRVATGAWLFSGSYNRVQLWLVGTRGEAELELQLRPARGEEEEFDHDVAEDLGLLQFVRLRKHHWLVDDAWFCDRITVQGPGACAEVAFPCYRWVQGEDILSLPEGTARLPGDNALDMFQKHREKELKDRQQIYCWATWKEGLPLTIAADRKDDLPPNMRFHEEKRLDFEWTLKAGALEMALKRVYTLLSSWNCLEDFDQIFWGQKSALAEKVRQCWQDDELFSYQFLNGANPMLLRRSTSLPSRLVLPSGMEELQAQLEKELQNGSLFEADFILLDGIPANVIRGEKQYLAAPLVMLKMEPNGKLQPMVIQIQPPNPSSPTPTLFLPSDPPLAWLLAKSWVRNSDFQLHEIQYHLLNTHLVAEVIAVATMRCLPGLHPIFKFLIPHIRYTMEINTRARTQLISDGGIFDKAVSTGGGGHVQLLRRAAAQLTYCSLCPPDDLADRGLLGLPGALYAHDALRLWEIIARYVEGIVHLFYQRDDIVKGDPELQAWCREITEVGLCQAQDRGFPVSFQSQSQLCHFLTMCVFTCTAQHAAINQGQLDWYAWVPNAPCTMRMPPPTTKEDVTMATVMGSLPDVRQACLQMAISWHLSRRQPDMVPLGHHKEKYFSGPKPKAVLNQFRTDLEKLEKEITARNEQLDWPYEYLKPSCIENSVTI
# Target: Polyunsaturated fatty acid lipoxygenase ALOX12 (Homo sapiens) (UniProt P18054)
# Assay: Primary qHTS assay for inhibitors of human arachidonate 12S-lipoxygenase (ALOX12): Round 2
# Settings: purified 12hLO, xylenol orange hydroperoxide absorbance; series mostly up to 108 µM
# How it was run: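 Purified human 12hLO at 150 nM in 25 mM Hepes, 0.01% Triton X-100, pH 7.0, preincubated 15 min at room temperature with compound. Reaction started with 40 uM arachidonic acid, 30 min at room temperature. Hydroperoxide measured by Fe-xylenol orange, 573/405 nm absorbance ratio.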
# Potency is read from the fitted curve at half-maximal effect.
row,SMILES,Potency
1,Cc1ccc(OCc2nn3c(=O)c4ccccc4nc3s2)cc1,"inconclusive: 6.31 µM [inhibitor, full curve, poor fit]"
2,Cc1ccc(NC(=O)CSC2=C(C#N)C(c3ccco3)CC(=O)N2)cc1 (stereo not drawn),"inconclusive: 158 µM [inhibitor, single point]"
3,O=C(CCc1ncc(-c2ccc(Cl)cc2)o1)Nc1ccccc1O,"inconclusive: 5.01 µM [inhibitor, full curve]"
4,O=C1OCCC1NCC(c1ccccc1)c1c[nH]c2ccccc12 (stereo not drawn),"inconclusive: 89.1 µM [inhibitor, single point]"
5,O=C(Oc1ccc(=O)n(-c2ccccc2)n1)c1ccc(F)cc1,inactive
6,COc1ccc(CNC(=O)c2ccc(CN3C(=O)NC4(CCOCC4)C3=O)cc2)cc1,inactive
7,O=CNCc1nc2ccccc2n1CCc1ccccc1,inactive
8,CCc1ccc(NC(=O)Cn2c(=O)n(-c3cc(C)cc(C)c3)c(=O)c3oc4ccccc4c32)cc1,"inconclusive: 100 µM [inhibitor, partial curve, poor fit]"
9,COc1ccc(OC)c(-c2cc(C(=O)O)c3cccc(C)c3n2)c1,"inconclusive: 17.8 µM [inhibitor, partial curve]"
10,Nc1nc(Cl)cc(Oc2ccc(Cl)cc2)n1,"inconclusive: 39.8 µM [inhibitor, single point]"
11,CCOc1ccc(C2C(C#N)=C(N)Oc3n[nH]c(-c4ccc(F)cc4)c32)cc1OCC (stereo not drawn),"inconclusive: 39.8 µM [inhibitor, partial curve, poor fit]"
12,COC(=O)CC1Oc2ccc(C)cc2-n2cc(-c3ccc(C)cc3)nc21 (stereo not drawn),"inconclusive: 2.82 µM [inhibitor, full curve, poor fit]"
13,Cc1ccc(CSc2oc(-c3cccs3)nc2S(=O)(=O)c2ccc(C)cc2)cc1,"inconclusive: 112 µM [inhibitor, partial curve, poor fit]"
14,Cc1ccc(NC(=O)CN2C(=O)S/C(=C\c3ccc(-c4cccc(C(=O)O)c4C)o3)C2=O)cc1C,"inconclusive: 56.2 µM [inhibitor, partial curve, poor fit]"
15,CCCCCC/C=N/Nc1nnc(Cc2ccc(OC)c(OC)c2)c(=O)[nH]1,inactive
16,COc1ccc(OCc2nc(C3CN(C(=O)Nc4cccc(F)c4)C3)no2)cc1,"inconclusive: 44.7 µM [inhibitor, partial curve]"
17,Cc1ccc(CN2C[C@H]3CN(Cc4ccc(OC(F)(F)F)cc4)CCN3C2=O)cc1,"inconclusive: 15.8 µM [inhibitor, full curve]"
18,Cc1ccc(C(=O)N2CC(=O)Nc3ccc(F)cc3C2c2ccccc2)cc1[N+](=O)[O-] (stereo not drawn),inactive

# Reformatted bar-delimited: part of the list above.
row | SMILES | Potency
14 | Cc1ccc(NC(=O)CN2C(=O)S/C(=C\c3ccc(-c4cccc(C(=O)O)c4C)o3)C2=O)cc1C | inconclusive: 56.2 µM [inhibitor, partial curve, poor fit]
17 | Cc1ccc(CN2C[C@H]3CN(Cc4ccc(OC(F)(F)F)cc4)CCN3C2=O)cc1 | inconclusive: 15.8 µM [inhibitor, full curve]

# From PubChem BioAssay AID1671190 (National Center for Advancing Translational Sciences (NCATS), 2021)
